Assay results taken from publication PMC11603412, “Anti-hepatocellular carcinoma activities of novel hydrazone derivatives via downregulation of interleukin-6” (RSC Advances, 2024).

System: HepG2 cell line
Test: MTT cytotoxicity assay, HepG2
Format: cell-based, human
Conditions: IC50 liver mesenchymal stem cells divided by IC50 HepG2
Description: The HepG2 cell line was obtained from ATCC (Rockville, MD). Liver mesenchymal stem cells were harvested from liver biopsy according to previously published protocols.[34] Cells were grown in DMEM media with 10% fetal bovine serum (FBS), 100 U per mL penicillin, and […] streptomycin at 37 °C, 5% CO2. The MTT assay kit, which relies on succinate dehydrogenase in living cells' mitochondria to convert the 3-(4,5-dimethylthiazol-2-yl)-2,5-diphenyltetrazolium bromide (MTT) dye to violet formazan crystals, was used to calculate the vitality of individual cells. 6000 cells per well were seeded in the 96-well plate containing, which were then incubated for 24 h. Different concentrations of drug were dissolved in DMEM and then added to the wells to replace the culture medium. The medium was discarded after incubation for 24 h under the same conditions, and 100 μL of MTT (2 mg mL^−1) were added. After 3 h of incubation at 37 °C, the generated formazan crystals generated were dissolved in 50 μL of DMSO. The optical density was then measured using a Stat Fax ELISA plate reader (Romer Labs, Getzersdorf, Austria) at 570 nm with a reference wavelength of 630 nm after incubating the plate at 37 °C for 15 min. As a positive control, the tyrosine kinase inhibitor sorafenib (Bayer, Germany) was employed. DMSO was used as a solvent and its final concentration was less than 0.2%. SI and IC50 were calculated. Triplicates of each in vitro test were performed.[33]

SMILES	SI
O=C1Nc2ccccc2/C1=N/N=C(C1CC1)C1CC1 [Compound 4, 3-(dicyclopropylmethylene)hydrazone indolin-2-one]	1.86
NC1=NNC(c2ccccc2O)N1/N=C\c1ccccc1O (stereo not shown) [Compound 8a]	1.6
O=C1C(=O)c2ccccc2C2=C1NNC(C1CC1)(C1CC1)O2 [Compound 13]	1.38
NC1=CC(=O)NNC1(C1CC1)C1CC1 [Compound 18]	1.11
CNC(=O)c1cc(Oc2ccc(NC(=O)Nc3ccc(Cl)c(C(F)(F)F)c3)cc2)ccn1 [Sorafenib, reference compound]	3.9
Cc1nc2ccccc2c(=O)n1NC(=S)N=C(C1CC1)C1CC1 [Compound 20]	1.26
O=C1CCC(=O)N1N=C(C1CC1)C1CC1 [Compound 16]	3.2
